Experimental findings from PMC6003922, “Functional switching of ascorbate peroxidase 2 of rice (OsAPX2) between peroxidase and molecular chaperone” (Scientific Reports, 2018) are described below.

No constants are given. Whether binding was seen depends on the method and setting. Some entries that bind do so weakly or less than the wild type.

The target in test [1] is recombinant Oryza sativa ascorbate peroxidase 2 (OsAPX2) protein (Oryza sativa) (UniProt Q9FE01). The test is described as follows: SEC; re-chromatography of the concentrated fractions F1-F4 under the original SEC conditions; data not shown; both purified. In general terms: SEC sorts molecules by how far they enter the pores of the column.
The target is the same in test [2]. The test is described as follows: native gel or EMSA; 10% native-PAGE of purified recombinant OsAPX2 and of its SEC fractions F1-F4; both purified.
In test [3] the target is OsAPX2 in crude protein extracts of the salt-sensitive rice cultivar IR29 (Oryza sativa (endogenous in cv. IR29)) (UniProt Q9FE01). The experiment in a line: native gel or EMSA; 10% native-PAGE of crude total protein extracts of rice plants, western blot with polyclonal anti-OsAPX2 antibody; plants untreated, 100 mM NaCl for 3 d, and 3 d recovery. For orientation: In EMSA bound probe runs differently from free probe, usually more slowly.

In test [4] the target is OsAPX2 in the salt-tolerant rice cultivar Pokkali (Oryza sativa (endogenous in cv. Pokkali)) (UniProt Q9FE01). The description is as above.

B1: recombinant Oryza sativa ascorbate peroxidase 2 (OsAPX2) protein (enzyme, UniProt Q9FE01 1-251, looked up)
chain: MGSKSYPTVSDEYLAAVGKAKRKLRGLIAEKNCAPLMLRLAWHSAGTFDVSSRTGGPFGTMKNPGEQSHAANAGLDIAVRLLDPIKDQLPILSYADFYQLAGVVAVEVTGGPEVPFHPGRQDKPEPPPEGRLPDATQGSDHLRQVFSAQMGLSDKDIVALSGGHTLGRCHKERSGFEGAWTSNPLIFDNSYFTELVSGEKEGLLQLPSDKALMADPAFRPLVEKYAADEDAFFADYAEAHLKLSELGFAEE
notes: Ascorbate peroxidase 2 (OsAPX2), cytosolic, Oryza sativa; the OsAPX2 gene cloned into pET28a; monomer of approximately 27 kDa on reducing SDS-PAGE; Haem-containing peroxidase; also called His-tagged OsAPX2; purified OsAPX2; source: E. coli BL21 (DE3), pET28a, purified (nickel-nitrilotriacetate agarose; SEC)
With B1, the binding result in test [1] and in test [2] was “binds” each time.

B2: OsAPX2 in crude protein extracts of the salt-sensitive rice cultivar IR29 (enzyme, UniProt Q9FE01 1-251)
chain: MGSKSYPTVSDEYLAAVGKAKRKLRGLIAEKNCAPLMLRLAWHSAGTFDVSSRTGGPFGTMKNPGEQSHAANAGLDIAVRLLDPIKDQLPILSYADFYQLAGVVAVEVTGGPEVPFHPGRQDKPEPPPEGRLPDATQGSDHLRQVFSAQMGLSDKDIVALSGGHTLGRCHKERSGFEGAWTSNPLIFDNSYFTELVSGEKEGLLQLPSDKALMADPAFRPLVEKYAADEDAFFADYAEAHLKLSELGFAEE
Turning to B2, the binding result in test [3] is recorded as “binds”.

B3: OsAPX2 in the salt-tolerant rice cultivar Pokkali (enzyme, UniProt Q9FE01 1-251)
chain: MGSKSYPTVSDEYLAAVGKAKRKLRGLIAEKNCAPLMLRLAWHSAGTFDVSSRTGGPFGTMKNPGEQSHAANAGLDIAVRLLDPIKDQLPILSYADFYQLAGVVAVEVTGGPEVPFHPGRQDKPEPPPEGRLPDATQGSDHLRQVFSAQMGLSDKDIVALSGGHTLGRCHKERSGFEGAWTSNPLIFDNSYFTELVSGEKEGLLQLPSDKALMADPAFRPLVEKYAADEDAFFADYAEAHLKLSELGFAEE
With B3, the binding entry in test [4] was “binds”.
